Laboratory results: PubChem BioAssay AID445 (National Center for Advancing Translational Sciences (NCATS), 2006)
Some of the results follow. Further columns of the screen follow, without active or inactive calls. The list favours compounds with an active or inconclusive main result. Potencies come from curve fits of mixed quality, noted in brackets.

Test: IkB Signaling
Conditions: ABC-DLBCL IkBa-CBG/CBR dual luciferase ratio (green luciferase fused to IkBa over red control in OCI-Ly3 lymphoma cells), 4 h
Outline: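 Curves were fitted separately to fusion (green), unfused (red) and ratio luminescence, then classed by r2, magnitude and activity. Cells: OCI-Ly3, 4 h compound plus doxycycline at 37C; 10 uM MG-132 defined full response.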

[1] = measured here: control luc red channel unless noted
[2] = measured here: IkB-luc green channel
[3] = measured here: control luc red channel

## COc1cccc(NC(=O)c2ccc3nc(Cc4ccccc4)oc3c2)c1
[1]
  AC50: 15.8 µM [falling, partial curve]

## Cc1ccccc1CNc1ncnc2c1ncn2[C@@H]1O[C@@H](CO)[C@H](O)[C@@H]1O
[2]
  AC50: 1.26 µM [rising, full curve, poor fit]
[3]
  AC50: 0.316 µM [rising, full curve, poor fit]

## O=C(Nc1ccc(N2CCN(C(=O)c3ccccc3)CC2)cc1)c1ccc(Br)o1
[1]
  AC50: 20 µM [falling, partial curve]

## O=C(CSc1nc2cc(S(=O)(=O)N3CCOCC3)ccc2o1)NC1CCCc2ccccc21 (centres undefined)
[1]
  AC50: 39.8 µM [falling, single point]

## CCCCc1ccc(NC(=O)C2(C)Cc3ccccc3C(=O)O2)cc1 (centres undefined)
[1]
  AC50: 20 µM [falling, partial curve]

## Cc1cccc(-c2nc(C(N)=O)c3c(n2)n(-c2ccc4c(c2)OCO4)c(=O)n3C)c1
[1]
  AC50: 0.0794 µM [falling, full curve, poor fit]

## CCc1ccc(C2CC(=O)Oc3c2c(=O)n(C)c2ccccc32)cc1 (centres undefined)
[1]
  AC50: 25.1 µM [falling, partial curve]

## CCOC(=O)CSc1nc2ccc(NC(=O)COc3ccccc3C)cc2s1
[1]
  AC50: 2 µM [falling, full curve]

## O=C(Nc1ccc(Cl)cc1)c1cc2c(-c3ccccc3)nn(-c3ccccc3)c2s1
[1]
  AC50: 15.8 µM [falling, single point]

## CCOC(=O)c1c(NC(C)=O)c2c3c(sc2n1Cc1nc(-c2cccc(C)c2)oc1C)CCCC3
[1]
  AC50: 39.8 µM [falling, single point]

## COc1cc(-c2cc(OC)c3c(C)oc(C)c3c(=O)c2)ccc1OC(=O)c1ccccc1F
[1]
  AC50: 1 µM [falling, full curve, poor fit]

## COc1ccccc1C(=O)NC1=NC(c2ccc(Br)cc2)CC(=O)N1 (centres undefined)
[1]
  AC50: 31.6 µM [falling, partial curve]

## OCCCc1nc2n(n1)C(c1cccc(Cl)c1)C=C(c1ccccc1)N2 (centres undefined)
[1]
  AC50: 10 µM [falling, partial curve]

## CCCc1cc(C(=O)Nc2c(C)nn(Cc3ccc(Cl)c(Cl)c3)c2C)no1
[1]
  AC50: 12.6 µM [falling, partial curve]

## Nc1n[nH]c(-c2ccccc2)c1-c1ccccc1
[1]
  AC50: 6.31 µM [falling, partial curve]

## Cc1nn(-c2ccccc2)c(OC(=O)C(C)(C)C)c1Sc1ccccc1
[1]
  AC50: 2.51 µM [falling, full curve, poor fit]

## O=c1oc2ccccc2cc1-c1cn2cc(Cc3ccccc3F)sc2n1
[1]
  AC50: 0.316 µM [rising, full curve]

## Cc1ccc(Cn2c(SCc3ccc(C(=O)NC4CCCC4)cc3)nc3ccncc32)cc1
[1]
  AC50: 25.1 µM [falling, single point]

## Cc1nnc(NC(=O)C(=O)c2cc(C)n(-c3ccc(C)c(C)c3)c2C)s1
[1]
  AC50: 10 µM [falling, partial curve]

## Cc1cc(C(=O)CSc2nnc(-c3ccccc3F)o2)c(C)n1Cc1cccs1
[1]
  AC50: 3.98 µM [falling, full curve, poor fit]

## Cc1ccc(C(=O)Nc2ccc3oc(-c4ccncc4)nc3c2)c(Cl)c1
[1]
  AC50: 3.16 µM [falling, full curve]

## Cc1nc2ccc(S(=O)(=O)N(C)CC(=O)N3CCc4ccccc43)cc2s1
[1]
  AC50: 25.1 µM [falling, partial curve]

## Cn1c(=O)oc2cc(S(=O)(=O)N3CCN(C(=O)c4ccco4)CC3)ccc21
[1]
  AC50: 5.01 µM [falling, partial curve]

## CCc1ccc(-n2c(=O)c3cccnc3n2CC(=O)Nc2ccccc2C(F)(F)F)cc1
[1]
  AC50: 0.0251 µM [rising, full curve, poor fit]

## N#Cc1c(NC(=O)CS(=O)(=O)c2ccc(Cl)cc2)sc2c1CCCCC2
[1]
  AC50: 3.98 µM [falling, partial curve]

## COc1ccc(-c2ccc(CCC(=O)O)n2CC(=O)Nc2cccc(C(F)(F)F)c2)cc1
[1]
  AC50: 20 µM [falling, single point]

## CCOc1ccc(S(=O)(=O)NCCc2sc3nc(-c4ccc(C)cc4)nn3c2C)cc1
[1]
  AC50: 3.16 µM [rising, single point] [measured here: IkB-luc green channel]

## Cc1cc(C)cc(-n2ccn(Cc3ccc(F)cc3)c(=O)c2=O)c1
[1]
  AC50: 7.94 µM [falling, partial curve]

## CCn1c(SCC(=O)Nc2cccc(OC)c2)nnc1-c1ccc(Cl)cc1
[1]
  AC50: 10 µM [falling, partial curve]

## Cc1cccc(C)c1Nc1c(-c2ccc(O)cc2)nc2sccn12
[1]
  AC50: 15.8 µM [falling, partial curve]

## O=c1c2sc3ccccc3c2n(Cc2cccc(C(F)(F)F)c2)c(=O)n1Cc1ccc(F)cc1
[1]
  AC50: 10 µM [rising, partial curve, poor fit]

## COc1ccc(NC(=O)CC2C(=O)N(c3cccc(OC)c3)C(=O)N2Cc2ccc3c(c2)OCO3)cc1 (centres undefined)
[1]
  AC50: 25.1 µM [falling, single point]

## CCOc1ccc(N2C(=O)c3cccnc3C2Nc2ccc(F)cc2)cc1 (centres undefined)
[1]
  AC50: 2.51 µM [falling, full curve]

## Cc1ccc(-c2cn(-c3ccc(Cl)cc3)c(S(=O)(=O)CC(=O)Nc3ccccc3)n2)cc1
[1]
  AC50: 6.31 µM [falling, full curve]

## Cc1nnc2c3ccccc3nc(Nc3cccc(O)c3)n12
[1]
  AC50: 15.8 µM [falling, partial curve, poor fit]

## CCCCOC(=O)c1ccc(Nc2nnc(-n3nc(C)cc3C)c3ccccc23)cc1
[1]
  AC50: 5.01 µM [falling, partial curve]

## O=C(NC1CC(=O)N(c2ccc(Cl)cc2)C1)c1ccc(S(=O)(=O)N2CCOCC2)cc1 (centres undefined)
[2]
  AC50: 3.98 µM [rising, single point]
[3]
  AC50: 6.31 µM [rising, partial curve]

## O=C(Nc1ccc2c(c1)OCO2)C1CCCN(S(=O)(=O)c2cccs2)C1 (centres undefined)
[1]
  AC50: 20 µM [falling, partial curve]

## COc1ccc(CCNc2oc(-c3ccccc3OC)nc2C#N)cc1
[1]
  AC50: 12.6 µM [falling, partial curve]

## Cc1ccc(Cl)cc1NC(=O)C1CCN(c2nc3ccccc3n3cccc23)CC1
[1]
  AC50: 20 µM [falling, single point]

## COc1cccc(-c2cc(C(=O)N3CCN(Cc4ccccc4)CC3)no2)c1
[1]
  AC50: 15.8 µM [falling, partial curve]

## COc1ccccc1-c1cc(C(=O)NC(C)c2ccccc2)no1 (centres undefined)
[1]
  AC50: 1.26 µM [falling, partial curve]

## Cc1ccc(NC(=O)c2c(NC(=O)c3ccccc3)sc3c2CCC3)cc1
[1]
  AC50: 0.794 µM [falling, full curve]

## COc1ccc(-c2nc3nc(C)c(Cc4ccccc4)c(=O)n3[nH]2)cc1
[1]
  AC50: 2.51 µM [falling, full curve]

## N#CC(C(=O)C1CCCCC1)c1nc2ccccc2[nH]1 (centres undefined)
[1]
  AC50: 12.6 µM [falling, single point]

## O=C(Nc1ccc2c(c1)nc1n2CCN(Cc2ccccc2)C1)c1cccs1
[1]
  AC50: 12.6 µM [falling, partial curve]

## O=C1CN(C(=O)c2ccc(Br)o2)C(c2ccc(F)cc2)c2cc(Cl)ccc2N1 (centres undefined)
[1]
  AC50: 10 µM [falling, partial curve]

## CC(C)Cn1c(=O)c2sccc2n2c(CCCC(=O)NC3CCCCC3)nnc12
[1]
  AC50: 39.8 µM [falling, single point]

## CCN(CC)CCNC(=O)c1ccc(-n2c(-c3ccccc3)cc3c2CCCC3)cc1
[1]
  AC50: 31.6 µM [falling, partial curve]

## COc1cccc(CNC(=O)CCCn2nc(C)c3c(C)n(-c4ccc(C)cc4)nc3c2=O)c1OC
[1]
  AC50: 15.8 µM [falling, partial curve]

## Cc1cc(C)cc(NC(=O)C2CCN(S(=O)(=O)c3cccc(-c4noc(C)n4)c3)CC2)c1
[1]
  AC50: 39.8 µM [falling, single point]

## CC1=Nc2cc(C(=O)NC(C)C)ccc2Sc2ccc(C)cc21
[1]
  AC50: 39.8 µM [falling, single point]

## Fc1ccc(Br)cc1C1C=C(c2ccc(Br)cc2)Nc2nnnn21 (centres undefined)
[1]
  AC50: 0.0158 µM [falling, full curve, poor fit]

## CCc1cccc(N2C(=O)CS(=O)(=O)C23C(=O)N(Cc2ccccc2)c2ccc(C)cc23)c1 (centres undefined)
[1]
  AC50: 15.8 µM [falling, partial curve]

## CSc1ccc(CNC(=O)c2sc3ncnc(N(C)C4CCCCC4)c3c2C)cc1
[1]
  AC50: 25.1 µM [falling, single point]

## CCOc1ccc(CN2C(=O)C(=O)c3cccc(C)c32)cc1OC
[1]
  AC50: 0.398 µM [rising, full curve]

## Cc1c(C(=O)Nc2ccc(F)cc2)oc2ccc(S(=O)(=O)N3CCCCCC3)cc12
[1]
  AC50: 10 µM [falling, partial curve]

## Cc1cc(C(=O)Nc2nnc(C3CCCCC3)s2)no1
[1]
  AC50: 10 µM [falling, partial curve]

## CN(c1ccccc1)S(=O)(=O)c1cccc(C(=O)N2CCN(c3ccccn3)CC2)c1
[1]
  AC50: 25.1 µM [falling, partial curve]

## O=C(CSc1nnc(COc2ccc(F)cc2)o1)N1c2ccccc2CCc2ccccc21
[1]
  AC50: 3.98 µM [falling, full curve, poor fit]

## Cc1cc(C)c(NC(=O)C2CCN(C(=O)N3CCOc4ccccc43)CC2)c(C)c1
[1]
  AC50: 12.6 µM [falling, partial curve]

## COc1cc2c(cc1NC(=O)COc1ccc(Br)cc1)oc1ccccc12
[1]
  AC50: 39.8 µM [falling, single point]
